Experimental data: PubChem BioAssay AID602196 (INSERM, 2012)
In all, the deposit lists about 23,000 reagents; this is a random part of them. Of all reagents, 455 (2%) are marked active. 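Active includes both protection and sensitisation; some change values fall well beyond the stated -50 to +50 range.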 Further read-outs or replicates are left out here. No sequences are given here. Not given: the amount of reagent.

- Screen: 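Knock-downs that protect lung cancer cells from cisplatin or sensitise them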
- Cell system: human A549 lung cancer cells
- Knock-down reagent: siRNA pair against human genes
- Timing: 48 h transfection before cisplatin; time from cisplatin to read-out not stated
- Conditions: cisplatin at a dose killing half of control-siRNA cells; exact dose and duration not given
- Read-out: 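Cisplatin cell death as a shift from the 50% death seen with control siRNA; siRNAs toxic or growth-blocking alone scored 0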
- Scale: two-siRNA summed score (-2 to +2): higher = both siRNAs protect from cisplatin killing; -2 means both sensitise
- Active means: 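siRNAs harmful alone (LDH or WST-1) get 0; others get +1 for less and -1 for more cisplatin killing; genes are active when the two siRNAs give the same sign, summing to ±2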
- Meaning of the calls: active = both siRNAs shift cisplatin killing the same way; inactive = no consistent shift, or siRNA harmful alone

Depletion of LOC342933 gave: two-siRNA summed score (-2 to +2) = -1; inactive.
With knock-down of USP30 the results were two-siRNA summed score (-2 to +2) = 0; inactive.
For MRPS30, the values are two-siRNA summed score (-2 to +2) = 1; inactive.
After knock-down of PI4K2B the results were two-siRNA summed score (-2 to +2) = 1; inactive.
Against SLC9A5, the values are two-siRNA summed score (-2 to +2) = 0; inactive.
DCTN2 showed two-siRNA summed score (-2 to +2) = 1; inactive.
Silencing of CPEB1 came out at: two-siRNA summed score (-2 to +2) = 0; inactive.
EDDM3B gave two-siRNA summed score (-2 to +2) = -1; inactive.
Against LOC340900, the values are two-siRNA summed score (-2 to +2) = 0; inactive.
Silencing of LOC440381 gave: two-siRNA summed score (-2 to +2) = 0; inactive.
With knock-down of MPL, the record shows two-siRNA summed score (-2 to +2) = -1; inactive.
For SRSF8, the values are two-siRNA summed score (-2 to +2) = 0; inactive.
NAF1 scored two-siRNA summed score (-2 to +2) = 0; inactive.
After knock-down of ADARB2, the record shows two-siRNA summed score (-2 to +2) = 0; inactive.
Depletion of CDH12 gave: two-siRNA summed score (-2 to +2) = 0; inactive.
After knock-down of TBCA, the screen gave two-siRNA summed score (-2 to +2) = 0; inactive.
Knock-down of LSR gave: two-siRNA summed score (-2 to +2) = -1; inactive.
Depletion of TSPO came out at: two-siRNA summed score (-2 to +2) = -2; active.
Knock-down of VASN gave: two-siRNA summed score (-2 to +2) = 0; inactive.
Depletion of YBEY resulted in: two-siRNA summed score (-2 to +2) = 0; inactive.
For LOC442371 the deposit lists two-siRNA summed score (-2 to +2) = 0; inactive.
For CTNNA1, the entry reads two-siRNA summed score (-2 to +2) = 1; inactive.
Silencing of B3GALT4 resulted in: two-siRNA summed score (-2 to +2) = 0; inactive.
IFT57 scored two-siRNA summed score (-2 to +2) = -1; inactive.
ENPP5 scored two-siRNA summed score (-2 to +2) = 0; inactive.
After knock-down of GJB5, the screen gave two-siRNA summed score (-2 to +2) = 0; inactive.
Silencing of LOC441636 came out at: two-siRNA summed score (-2 to +2) = 0; inactive.
FPR1 showed two-siRNA summed score (-2 to +2) = -2; active.
Depletion of LOC388365 resulted in: two-siRNA summed score (-2 to +2) = 0; inactive.
LRRC37A2 gave two-siRNA summed score (-2 to +2) = 1; inactive.
Against NSRP1 the deposit lists two-siRNA summed score (-2 to +2) = 0; inactive.
For APPL1, the values are two-siRNA summed score (-2 to +2) = 0; inactive.
After knock-down of LOC440160, the record shows two-siRNA summed score (-2 to +2) = 0; inactive.
For LOC442217 the deposit lists two-siRNA summed score (-2 to +2) = 1; inactive.
FGF21 scored two-siRNA summed score (-2 to +2) = 0; inactive.
Knock-down of GCDH came out at: two-siRNA summed score (-2 to +2) = 1; inactive.
Depletion of MORN2 gave: two-siRNA summed score (-2 to +2) = 1; inactive.
PEX11G showed two-siRNA summed score (-2 to +2) = 0; inactive.
For LOC390595, the entry reads two-siRNA summed score (-2 to +2) = 1; inactive.
HOXB9 scored two-siRNA summed score (-2 to +2) = 0; inactive.

Part of the list above, set out differently.
| gene | two-siRNA summed score (-2 to +2) | activity call |
| --- | --- | --- |
| TSPO | -2 | active |
| VASN | 0 | inactive |
| YBEY | 0 | inactive |
| LOC442371 | 0 | inactive |
| CTNNA1 | 1 | inactive |
